Reference: PubChem BioAssay AID504764 (Drosophila RNAi Screening Center, 2011)
In all, the deposit lists about 22,000 reagents; this is a random part of those that have a named target and a result. In the full data, 403 (1.9%) are marked active. 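Unnormalised raw counts per well; ratio z-scores behind the hit calls and whether each hit raises or lowers signal are not deposited.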 Names joined by + are all predicted targets of the reagent. Not stated in the record: the amount of reagent.

- Test: 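Genes whose knock-down alters Notch-dependent transcription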 (primary screen)
- Cells: Drosophila Kc167 cells
- Knock-down reagent: long dsRNA against Drosophila genes
- Timing: about 5 days (4 days dsRNA, then 24 h after transfection)
- Treatment: transfection of constitutively active membrane-tethered Notch lacking the extracellular domain, read 24 h later
- Read-out: 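Firefly luciferase from an E(spl)m3 reporter with active Notch, plus control-promoter and uninduced reporter wells for normalisation; unnormalised counts, duplicate wells a and b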
- Scale: induced reporter light, run 1, well a and induced reporter light, run 1, well b: higher = more light from the Notch target reporter with active Notch; control promoter light, run 1, well a and control promoter light, run 1, well b: higher = more light from the viral control promoter (cell number, transfection, viability); uninduced reporter light, run 1, well a: higher = more light from the Notch target reporter without active Notch
- Rule for the call: 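Hit if the duplicate-averaged log2 ratio of induced to control-promoter light gives a plate-wise z beyond ±2, or induced to uninduced beyond ±1.8; weak-control or discordant-duplicate wells dropped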
- Meaning of the calls: active = modifier hit (raised or lowered Notch signal); inactive = not a hit

CG13991 [DRSC02323] — induced reporter light, run 1, well a = 75015; induced reporter light, run 1, well b = 58500; control promoter light, run 1, well a = 72240; control promoter light, run 1, well b = 70630; uninduced reporter light, run 1, well a = 4650; Call = inactive
CG4271 [DRSC00649] — induced reporter light, run 1, well a = 1.34e5; induced reporter light, run 1, well b = 1.44e5; control promoter light, run 1, well a = 1.40e5; control promoter light, run 1, well b = 1.20e5; uninduced reporter light, run 1, well a = 10885; Call = inactive
CG33255 (retired record) + hpRNA:CR32205 + hpRNA:CR32207 [DRSC09617] — induced reporter light, run 1, well a = 2.69e5; induced reporter light, run 1, well b = 2.08e5; control promoter light, run 1, well a = 2.48e5; control promoter light, run 1, well b = 3.11e5; uninduced reporter light, run 1, well a = 16810; Call = inactive
Cap-D2 (CAP-D2 condensin subunit) [DRSC15401] — induced reporter light, run 1, well a = 2.02e5; induced reporter light, run 1, well b = 2.47e5; control promoter light, run 1, well a = 2.99e5; control promoter light, run 1, well b = 3.14e5; uninduced reporter light, run 1, well a = 17300; Call = inactive
CG30050 [DRSC05342] — induced reporter light, run 1, well a = 1.68e5; induced reporter light, run 1, well b = 1.77e5; control promoter light, run 1, well a = 2.53e5; control promoter light, run 1, well b = 2.98e5; uninduced reporter light, run 1, well a = 18840; Call = inactive
CG14013 [DRSC02344] — induced reporter light, run 1, well a = 2.09e5; induced reporter light, run 1, well b = 1.37e5; control promoter light, run 1, well a = 1.95e5; control promoter light, run 1, well b = 1.56e5; uninduced reporter light, run 1, well a = 10040; Call = inactive
Tango5 (Transport and Golgi organization 5) [DRSC18023] — induced reporter light, run 1, well a = 1.84e5; induced reporter light, run 1, well b = 1.49e5; control promoter light, run 1, well a = 2.44e5; control promoter light, run 1, well b = 2.19e5; uninduced reporter light, run 1, well a = 11800; Call = inactive
CG30355 [DRSC21958] — Call = inactive

An excerpt of the results above, as a working copy:
Cap-D2 (CAP-D2 condensin subunit) [DRSC15401] — induced reporter light, run 1, well a = 2.02e5; induced reporter light, run 1, well b = 2.47e5; control promoter light, run 1, well a = 2.99e5; control promoter light, run 1, well b = 3.14e5; uninduced reporter light, run 1, well a = 17300; Call = inactive
CG30050 [DRSC05342] — induced reporter light, run 1, well a = 1.68e5; induced reporter light, run 1, well b = 1.77e5; control promoter light, run 1, well a = 2.53e5; control promoter light, run 1, well b = 2.98e5; uninduced reporter light, run 1, well a = 18840; Call = inactive

Continued.
Sara (Smad anchor for receptor activation) [DRSC04653] — induced reporter light, run 1, well a = 60620; induced reporter light, run 1, well b = 47765; control promoter light, run 1, well a = 49100; control promoter light, run 1, well b = 67975; uninduced reporter light, run 1, well a = 3675; Call = inactive
whe (what else) [DRSC20537] — induced reporter light, run 1, well a = 96045; induced reporter light, run 1, well b = 1.02e5; control promoter light, run 1, well a = 85750; control promoter light, run 1, well b = 1.21e5; uninduced reporter light, run 1, well a = 10455; Call = inactive
Or85a (Odorant receptor 85a) [DRSC16764] — induced reporter light, run 1, well a = 64355; induced reporter light, run 1, well b = 77470; control promoter light, run 1, well a = 74395; control promoter light, run 1, well b = 50900; uninduced reporter light, run 1, well a = 4715; Call = inactive
CG10866 [DRSC08171] — induced reporter light, run 1, well a = 1.69e5; induced reporter light, run 1, well b = 1.38e5; control promoter light, run 1, well a = 1.66e5; control promoter light, run 1, well b = 1.56e5; uninduced reporter light, run 1, well a = 7205; Call = inactive
